No constants are given. Whether binding was seen depends on the method and setting. In cells and extracts the contact can be indirect. Binding can be weak; no strength is given.
Key:
[1] = target: FLAG-tagged TACO1 (translational activator of cytochrome oxidase subunit I) (mouse) (UniProt Q8K0Z7); assay: co-IP; anti-FLAG M2 magnetic beads on lysates of co-transfected NIH-3T3 cells crosslinked with 2 mM dithiobis[succinimidyl propionate]; lysis in 10 mM Tris-HCl pH 7.5, 260 mM sucrose, 100 mM KCl, 20 mM MgCl2, 1% digitonin; elution with 3x FLAG peptide; blot with anti-GFP and anti-FLAG
[2] = target: FLAG-tagged MRPS27 (mouse) (UniProt Q8BK72); assay: as above

By UniProt entry, the sequences of proteins in these tests, tags left out. Where a name states a change or a piece, a line headed by the entry shows the natural chain unless it says otherwise. Residues count along the entry.
UniProt Q8K0Z7: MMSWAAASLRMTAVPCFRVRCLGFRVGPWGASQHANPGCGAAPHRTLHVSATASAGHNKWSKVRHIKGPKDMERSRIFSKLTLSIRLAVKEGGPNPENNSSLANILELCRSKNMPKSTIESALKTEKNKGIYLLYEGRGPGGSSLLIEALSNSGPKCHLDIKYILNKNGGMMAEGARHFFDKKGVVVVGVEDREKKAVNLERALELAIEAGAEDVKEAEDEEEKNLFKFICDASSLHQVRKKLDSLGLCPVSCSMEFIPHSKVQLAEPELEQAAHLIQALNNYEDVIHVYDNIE
UniProt Q8BK72, residues 18-415: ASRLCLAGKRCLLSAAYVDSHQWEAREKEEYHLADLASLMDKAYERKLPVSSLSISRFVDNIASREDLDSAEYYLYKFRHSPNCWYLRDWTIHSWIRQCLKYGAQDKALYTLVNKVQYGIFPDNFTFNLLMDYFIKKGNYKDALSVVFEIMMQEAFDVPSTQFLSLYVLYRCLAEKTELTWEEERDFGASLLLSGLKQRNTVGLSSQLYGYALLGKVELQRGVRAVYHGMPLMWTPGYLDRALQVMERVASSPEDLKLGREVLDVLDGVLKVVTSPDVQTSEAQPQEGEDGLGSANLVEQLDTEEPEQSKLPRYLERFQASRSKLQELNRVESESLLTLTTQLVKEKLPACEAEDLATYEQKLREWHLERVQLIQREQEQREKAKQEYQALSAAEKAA

Substance: GFP-tagged MRPS27 (from UniProt Q8BK72 18-415)
- binding [1]: binds

Substance: GFP-tagged TACO1 (from UniProt Q8K0Z7)
- binding [2]: binds

From PMC4915168
